According to paper PMC6614449:
No constants are given. Whether binding was seen depends on the method and setting. For part of these data: In cells and extracts the contact can be indirect. Some results given as binding are weak or reduced against the parent protein; the word gives no strength.

Amino acid sequences for entries named in this document (tags omitted). A change or cut given only in a name is not applied to a line headed by its entry. Chains listed by the source or under a name are the forms on record and can include a tag or linker. Residues count along the entry.
UniProt Q9UBS3, residues 24-223: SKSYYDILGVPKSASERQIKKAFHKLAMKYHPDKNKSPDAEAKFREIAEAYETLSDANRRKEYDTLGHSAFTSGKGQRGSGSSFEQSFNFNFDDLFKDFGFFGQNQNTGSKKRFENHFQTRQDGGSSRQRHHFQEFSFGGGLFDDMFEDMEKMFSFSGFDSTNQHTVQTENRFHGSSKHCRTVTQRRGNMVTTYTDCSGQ
UniProt Q9UBS4, residues 23-358: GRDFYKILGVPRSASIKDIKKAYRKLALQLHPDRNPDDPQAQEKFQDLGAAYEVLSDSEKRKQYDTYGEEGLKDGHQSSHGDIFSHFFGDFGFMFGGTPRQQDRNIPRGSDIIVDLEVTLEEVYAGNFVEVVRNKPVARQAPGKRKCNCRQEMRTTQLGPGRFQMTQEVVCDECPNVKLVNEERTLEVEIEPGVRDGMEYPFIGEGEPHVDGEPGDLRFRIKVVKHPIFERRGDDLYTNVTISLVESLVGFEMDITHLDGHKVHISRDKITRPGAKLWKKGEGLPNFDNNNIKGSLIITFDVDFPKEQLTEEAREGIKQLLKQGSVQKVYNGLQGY
UniProt P25686: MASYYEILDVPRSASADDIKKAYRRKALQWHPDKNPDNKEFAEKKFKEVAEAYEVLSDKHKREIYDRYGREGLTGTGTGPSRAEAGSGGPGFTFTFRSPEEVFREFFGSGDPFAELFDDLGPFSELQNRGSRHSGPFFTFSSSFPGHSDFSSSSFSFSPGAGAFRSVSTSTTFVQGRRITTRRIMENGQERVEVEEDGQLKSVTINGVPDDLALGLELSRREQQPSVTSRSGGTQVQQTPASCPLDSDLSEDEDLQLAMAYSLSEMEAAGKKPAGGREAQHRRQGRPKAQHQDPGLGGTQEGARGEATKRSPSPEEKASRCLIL
UniProt O75190: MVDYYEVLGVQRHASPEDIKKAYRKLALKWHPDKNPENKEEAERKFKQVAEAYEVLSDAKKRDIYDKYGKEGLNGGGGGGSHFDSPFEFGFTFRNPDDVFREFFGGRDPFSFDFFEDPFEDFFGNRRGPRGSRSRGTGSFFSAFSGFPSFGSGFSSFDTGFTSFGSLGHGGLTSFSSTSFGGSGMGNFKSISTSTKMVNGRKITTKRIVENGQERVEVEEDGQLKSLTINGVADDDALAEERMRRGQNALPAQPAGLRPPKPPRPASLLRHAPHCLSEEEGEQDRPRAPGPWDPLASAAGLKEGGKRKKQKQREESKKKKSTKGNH
UniProt P13569: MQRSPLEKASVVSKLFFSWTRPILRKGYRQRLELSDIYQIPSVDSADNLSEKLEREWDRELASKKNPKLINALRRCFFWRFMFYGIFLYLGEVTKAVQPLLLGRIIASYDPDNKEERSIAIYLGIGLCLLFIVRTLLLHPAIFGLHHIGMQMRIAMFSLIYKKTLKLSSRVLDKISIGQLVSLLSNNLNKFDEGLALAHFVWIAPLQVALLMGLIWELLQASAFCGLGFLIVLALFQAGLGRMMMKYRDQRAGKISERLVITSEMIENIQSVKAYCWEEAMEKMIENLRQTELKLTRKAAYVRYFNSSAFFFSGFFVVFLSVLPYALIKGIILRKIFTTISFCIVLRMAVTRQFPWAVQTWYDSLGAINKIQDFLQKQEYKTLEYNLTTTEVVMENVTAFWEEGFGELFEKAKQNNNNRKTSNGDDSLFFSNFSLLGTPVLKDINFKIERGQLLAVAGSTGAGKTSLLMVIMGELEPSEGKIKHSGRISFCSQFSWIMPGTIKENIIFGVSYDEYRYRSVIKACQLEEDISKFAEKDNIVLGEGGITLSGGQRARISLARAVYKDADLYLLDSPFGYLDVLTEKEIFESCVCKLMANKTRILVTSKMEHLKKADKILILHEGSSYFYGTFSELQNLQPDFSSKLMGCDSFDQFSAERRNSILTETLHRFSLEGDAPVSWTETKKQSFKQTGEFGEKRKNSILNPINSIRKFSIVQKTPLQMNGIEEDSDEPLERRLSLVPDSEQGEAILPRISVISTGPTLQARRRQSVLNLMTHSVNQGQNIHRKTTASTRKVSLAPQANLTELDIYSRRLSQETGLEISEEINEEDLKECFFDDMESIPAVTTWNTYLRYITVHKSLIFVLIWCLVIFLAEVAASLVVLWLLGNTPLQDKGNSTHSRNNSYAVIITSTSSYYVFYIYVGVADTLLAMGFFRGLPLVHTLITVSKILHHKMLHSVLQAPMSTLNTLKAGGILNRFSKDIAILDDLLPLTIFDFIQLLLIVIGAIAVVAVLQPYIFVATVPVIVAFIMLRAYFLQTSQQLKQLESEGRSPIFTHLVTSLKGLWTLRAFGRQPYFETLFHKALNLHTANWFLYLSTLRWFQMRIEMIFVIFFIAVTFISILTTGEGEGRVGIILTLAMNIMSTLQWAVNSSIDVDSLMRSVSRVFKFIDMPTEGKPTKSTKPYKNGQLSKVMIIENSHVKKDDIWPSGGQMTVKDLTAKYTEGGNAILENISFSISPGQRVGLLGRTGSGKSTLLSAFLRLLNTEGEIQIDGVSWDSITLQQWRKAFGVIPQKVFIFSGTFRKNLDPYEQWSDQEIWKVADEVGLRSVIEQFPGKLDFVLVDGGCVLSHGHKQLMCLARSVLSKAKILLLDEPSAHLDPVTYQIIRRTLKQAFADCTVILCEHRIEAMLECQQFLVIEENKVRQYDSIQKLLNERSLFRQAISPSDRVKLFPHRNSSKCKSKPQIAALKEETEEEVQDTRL
FLAG-ΔF508-CFTR (P13569, form named): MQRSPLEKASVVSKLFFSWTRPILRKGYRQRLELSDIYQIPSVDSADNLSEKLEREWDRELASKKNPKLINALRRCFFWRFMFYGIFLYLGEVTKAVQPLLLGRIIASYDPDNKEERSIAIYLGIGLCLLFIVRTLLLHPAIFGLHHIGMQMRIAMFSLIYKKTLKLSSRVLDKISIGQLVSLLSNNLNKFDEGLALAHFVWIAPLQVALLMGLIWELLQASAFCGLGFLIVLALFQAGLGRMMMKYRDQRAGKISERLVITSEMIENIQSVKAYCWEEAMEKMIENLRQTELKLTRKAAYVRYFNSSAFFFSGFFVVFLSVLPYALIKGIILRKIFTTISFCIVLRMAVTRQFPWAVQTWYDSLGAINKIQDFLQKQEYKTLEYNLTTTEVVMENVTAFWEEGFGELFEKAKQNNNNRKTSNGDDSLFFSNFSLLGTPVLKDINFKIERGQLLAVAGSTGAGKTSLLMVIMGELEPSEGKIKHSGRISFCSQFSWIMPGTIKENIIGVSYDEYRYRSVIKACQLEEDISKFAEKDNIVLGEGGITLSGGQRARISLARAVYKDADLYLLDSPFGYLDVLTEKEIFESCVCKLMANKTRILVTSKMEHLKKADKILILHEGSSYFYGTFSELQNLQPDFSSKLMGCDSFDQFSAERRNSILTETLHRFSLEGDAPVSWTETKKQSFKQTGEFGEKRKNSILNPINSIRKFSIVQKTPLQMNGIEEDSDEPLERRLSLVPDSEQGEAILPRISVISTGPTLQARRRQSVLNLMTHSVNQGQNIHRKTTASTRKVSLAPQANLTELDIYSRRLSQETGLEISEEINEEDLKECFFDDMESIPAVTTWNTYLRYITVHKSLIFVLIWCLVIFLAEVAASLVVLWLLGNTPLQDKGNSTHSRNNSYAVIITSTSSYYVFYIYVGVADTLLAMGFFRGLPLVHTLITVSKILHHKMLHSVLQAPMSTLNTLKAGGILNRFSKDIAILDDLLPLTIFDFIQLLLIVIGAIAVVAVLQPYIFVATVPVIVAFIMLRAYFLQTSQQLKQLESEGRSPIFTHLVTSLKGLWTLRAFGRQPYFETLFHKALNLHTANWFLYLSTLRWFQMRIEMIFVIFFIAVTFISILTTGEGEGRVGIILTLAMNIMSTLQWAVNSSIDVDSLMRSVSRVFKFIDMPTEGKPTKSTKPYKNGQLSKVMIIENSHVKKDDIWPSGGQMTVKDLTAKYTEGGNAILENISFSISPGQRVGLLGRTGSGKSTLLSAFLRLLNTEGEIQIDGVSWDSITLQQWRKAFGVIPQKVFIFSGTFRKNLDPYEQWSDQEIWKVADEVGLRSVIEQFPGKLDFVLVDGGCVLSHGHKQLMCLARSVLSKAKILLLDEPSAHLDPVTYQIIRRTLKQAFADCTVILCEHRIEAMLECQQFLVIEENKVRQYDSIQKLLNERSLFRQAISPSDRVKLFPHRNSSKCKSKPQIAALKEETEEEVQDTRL

Legend:
[1] = target: human DNAJB9-HA (DNAJB9-3HA) (human) (UniProt Q9UBS3); assay: co-IP; HEK293 lines stably expressing FLAG-WT- or FLAG-ΔF508-CFTR, transiently transfected with DNAJB9-3HA, 48 h; lysis in IP buffer; anti-FLAG resin or anti-HA resin; western blotting with anti-CFTR and anti-HA
[2] = target: DNAJB11/ERjd3 (on the ProtoArray) (UniProt Q9UBS4); assay: peptide or protein array; ProtoArray protein microarray (Invitrogen / ThermoFisher) probed with purified full length FLAG-CFTR in solution; bound CFTR detected with mouse anti-FLAG monoclonal antibody and Alexa-488 secondary antibody, fluorescence scanner; mean of duplicate; both purified
[3] = target: DNAJB2 (on the ProtoArray) (UniProt P25686); assay: as above
[4] = target: DNAJB6 (on the ProtoArray) (UniProt O75190); assay: as above
[5] = target: DNAJB9 (on the ProtoArray) (UniProt Q9UBS3); assay: as above

Measured: binding

FLAG-ΔF508-CFTR (from UniProt P13569 1-1480)
binds: [1]

full length FLAG-CFTR (WT-CFTR) (from UniProt P13569 1-1480)
binds: [1] | [2] | [3] | [4] | [5]
